No constants are given. Whether binding was seen depends on the method and setting. For some of these results: Binding can be weak; no strength is given. Tags and fused reporters may be left off the sequences shown.
Columns and labels:
[1] = molecular target: vimentin (intermediate filaments); test: antibodies to MURFs and to intermediate filaments such as desmin, vimentin and cytokeratin
[2] = molecular target: cytokeratin (intermediate filaments); test: as above
[3] = molecular target: desmin (intermediate filaments); test: as above
[4] = molecular target: actin (filaments of cultured cells); test: coimmunofluorescence in transfected Hela cells

| binding [1] | binding [2] | binding [3] | binding [4] | Binder |
| --- | --- | --- | --- | --- |
| binds | binds | binds |  | MURF-1 (Muscle RING Finger 1), native protein without epitope tag (protein) MNFTVGFKPLLGDAHNMDNLEKQLICPICLEMFSKPVVILPCQHNLCRKCANDVFQASNPLWQSRGSTTVSSGGRFRCPSCRHEVVLDRHGVYGLQRNLLVENIIDIYKQESSRPLHAKAEQHLMCEEHEDEKINIYCLSCEVPTCSLCKVFGAHKDCEVAPLPTIYKRQKSELSDGIAMLVAGNDRVQAVITQMEEVCQTIEDNSRRQKQLLNQRFETLCAVLEERKGELLQALAREQEEKLQRVRGLIRQYGDHLEGSSKLVESAIQSMEEPQMALYLQQAKELINKVGAMSKVELAGRPEPGYESMEQFSVSVEHVAEMLRTIDFQPGAAGDEEDDDMALDGEEGNAGLEEERLDVPEGSGLH |
|  |  |  | no binding | full-length MURF-1 with C-terminal myc tag (protein, not shown: small tags and cut ends) MNFTVGFKPLLGDAHNMDNLEKQLICPICLEMFSKPVVILPCQHNLCRKCANDVFQASNPLWQSRGSTTVSSGGRFRCPSCRHEVVLDRHGVYGLQRNLLVENIIDIYKQESSRPLHAKAEQHLMCEEHEDEKINIYCLSCEVPTCSLCKVFGAHKDCEVAPLPTIYKRQKSELSDGIAMLVAGNDRVQAVITQMEEVCQTIEDNSRRQKQLLNQRFETLCAVLEERKGELLQALAREQEEKLQRVRGLIRQYGDHLEGSSKLVESAIQSMEEPQMALYLQQAKELINKVGAMSKVELAGRPEPGYESMEQFSVSVEHVAEMLRTIDFQPGAAGDEEDDDMALDGEEGNAGLEEERLDVPEGSGLH |

Reference: patent publication US20040132160A1
